Measurements reported in PubChem BioAssay AID2685 (National Center for Advancing Translational Sciences (NCATS), 2010).
This is one part of the list. The main result of the screen is listed elsewhere. These columns were measured beside it and carry no call. Compounds called inactive in the main read-out are mostly missing here. The note in brackets gives the kind of curve behind each potency; many fits are weak.

Experiment: qHTS Assay for Lipid Storage Modulators in Drosophila S3 Cells;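 as to cell number change: cells counted by Cell Tracker Red CMTPX staining in the red channel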
Conditions: BODIPY lipid droplet fluorescence, 18-24 h; for cell number change: measured here: cell count max response, cells fed with added oleic acid
Procedure, shortened: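 Drosophila S3 cells loaded with oleic acid (400 uM, as added) and compounds at several concentrations; lipid droplets imaged by 488-nm laser-scanning cytometry, 500–530 nm intensity and object ratio to cell channel. Percent activity normalized to 20 uM Triacsin C.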

[1] = measured here: lipid fluorescence (Fed channel) AC50, cells fed with added oleic acid
[2] = measured here: cell number channel AC50, cells fed with added oleic acid

Row | SMILES | AC50 [1] | cell number change | AC50 [2]
1 | COc1ccc(-c2nc(CSCC(=O)NCCCN3CCCC3=O)c(C)o2)cc1 | 3.26 µM [rising, single point] |  | 
2 | c1ccc(COc2ccc(CN3CCN(c4ccccn4)CC3)cc2)cc1 |  | 6.97% | 
3 | S=c1[nH]ccn1-c1ccc(Cl)cc1 | 18.4 µM [rising, single point] | 33.6% | 
4 | COc1cc(S(=O)(=O)NCc2cccnc2)ccc1F |  | 41.7% | 20.6 µM [rising, single point]
5 | O=C(N=C1SC2CS(=O)(=O)CC2N1c1ccc(F)cc1)C1CC1 (stereo not given) | 13 µM [rising, partial curve] | 20.2% | 
6 | COc1ccc(OCc2nnc(SCC(=O)Nc3ccccc3F)o2)cc1 | 35.5 µM [falling, single point] | 25% | 
7 | O=C1Nc2ccccc2/C1=N\N1CCOCC1 |  | -1.29% | 
8 | Cc1cc([N+](=O)[O-])nn1Cc1ccc(C(=O)N/N=C/c2ccc(F)cc2)cc1 |  | 15.3% | 2.06 µM [rising, partial curve]
9 | CCN(CC(=O)Nc1ccc(NC(C)=O)cc1)C(=O)Cc1cccc2ccccc12 |  | -6.71% | 
10 | COc1ccc(C(CC(=O)NCCCN2CCOCC2)NS(=O)(=O)c2ccc(C)cc2)cc1 (stereo not given) | 16.4 µM [falling, single point] | -26.7% | 
11 | O=C(CC(SCCO)c1ccc2c(c1)OCO2)c1cccs1 (stereo not given) | 0.517 µM [rising, full curve] | 56.3% | 2.59 µM [rising, full curve, poor fit]
12 | Oc1ccccc1N1CCN(C(=S)Nc2ccc(SC(F)F)cc2)CC1 | 0.13 µM [falling, full curve, poor fit] | 4.88% | 0.461 µM [falling, single point]
13 | Cc1cc(C)n2c(SCC(=O)Nc3ccccc3C#N)nnc2n1 | 0.82 µM [rising, full curve, poor fit] | 13.2% | 
14 | Cc1cccc(OCCN2C(=O)C(=O)c3cccc(C)c32)c1 |  | 2.86% | 3.66 µM [rising, single point]
15 | O=C(c1cccc(S(=O)(=O)N2CCOCC2)c1)N1CCCC1 | 5.17 µM [falling, single point] | 1.64% | 
16 | COc1ccc(CC(=O)Nc2nnc(SCc3ccccc3)s2)cc1S(=O)(=O)N1CCOCC1 |  | -6.43% | 

A draw from above in order of count of non-hydrogen atoms, rising.
Row | SMILES | AC50 [1] | cell number change | AC50 [2]
3 | S=c1[nH]ccn1-c1ccc(Cl)cc1 | 18.4 µM [rising, single point] | 33.6% | 
4 | COc1cc(S(=O)(=O)NCc2cccnc2)ccc1F |  | 41.7% | 20.6 µM [rising, single point]
11 | O=C(CC(SCCO)c1ccc2c(c1)OCO2)c1cccs1 (stereo not given) | 0.517 µM [rising, full curve] | 56.3% | 2.59 µM [rising, full curve, poor fit]
12 | Oc1ccccc1N1CCN(C(=S)Nc2ccc(SC(F)F)cc2)CC1 | 0.13 µM [falling, full curve, poor fit] | 4.88% | 0.461 µM [falling, single point]
8 | Cc1cc([N+](=O)[O-])nn1Cc1ccc(C(=O)N/N=C/c2ccc(F)cc2)cc1 |  | 15.3% | 2.06 µM [rising, partial curve]
9 | CCN(CC(=O)Nc1ccc(NC(C)=O)cc1)C(=O)Cc1cccc2ccccc12 |  | -6.71% | 

Next part.

Row | SMILES | AC50 [1] | cell number change | AC50 [2]
17 | CC1(C)CC(=O)C=C(NCCc2ccc(S(N)(=O)=O)cc2)C1 | 29.1 µM [falling, single point] |  | 
18 | COc1ccc(C2NC(c3ccc(OC)cc3)C(C)C(=O)C2C)cc1 (stereo not given) | 0.651 µM [rising, full curve] | 22.8% | 
19 | O=C1OCCC1Sc1nc2ccccc2c(=O)n1-c1ccc(F)cc1 (stereo not given) |  | 54.2% | 0.326 µM [rising, full curve, poor fit]
20 | O=C(CSc1nc2sccc2c(=O)[nH]1)N1CCN(c2ccccc2)CC1 | 0.411 µM [rising, full curve, poor fit] | 26.3% | 0.0731 µM [rising, full curve, poor fit]
21 | CC(C)Cc1ccccc1O | 29.1 µM [rising, single point] | -1.94% | 
22 | COC1(OC)N=C(N)C2(C#N)C(c3ccc(F)cc3)C12C#N (stereo not given) | 5.17 µM [falling, full curve] | -32.7% | 3.66 µM [falling, full curve]
23 | CCOC(=O)C1CCN(C(=O)c2cc3cc4cc(OC)ccc4nc3o2)CC1 |  |  | 3.66 µM [rising, single point]
24 | CCOc1ccc(NC(=O)CN(C)C(=O)c2cc(C)oc2C)cc1OCC | 6.51 µM [rising, single point] | -7.15% | 
25 | CCCCN(C)CCNC(=O)C(=O)c1c(C)[nH]c2ccccc12 |  | 4.67% | 
26 | N#CC(c1ccccc1)c1cnccn1 (stereo not given) | 18.4 µM [falling, partial curve] | -45.8% | 0.461 µM [falling, full curve, poor fit]
27 | COC(=O)c1c(NC(=O)COC(=O)C2CCC2)sc(C)c1C |  | 71.5% | 5.17 µM [rising, partial curve]
28 | CCc1cc(=O)oc2cc(OCC(=O)NCc3ccccn3)ccc12 | 2.31 µM [falling, single point] |  | 
29 | COc1ccc(N2CCOCC2)c(NC(=O)c2cc3ccccc3o2)c1 | 6.31 µM [rising, single point] | -18.4% | 
30 | C/C(=C\c1ccc(F)cc1)C(=O)c1c(C)cc(C)[nH]c1=O |  | -12.5% | 
31 | COc1ccc(S(=O)(=O)NC(CC(=O)NCCc2ccccc2)c2ccco2)cc1 (stereo not given) |  | 59.5% | 8.2 µM [rising, partial curve]
32 | CCC(=O)N(Cc1c(C)nn(-c2ccccc2)c1Cl)c1ccc(Cl)cc1 | 29.1 µM [rising, single point] | 39.8% | 20.6 µM [rising, single point]
